Values as published with doi:10.1371/journal.pone.0140310, rounded.

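The test systems are human melanoma cell lines, treated with a pair of drugs for 72 h and then stained and imaged. Values are the share of nuclei positive for cleaved PARP as a percentage of the same share in the DMSO control: 100 is the control level, higher means more apoptosis. Concentrations were fixed for each drug; these are the higher of two levels. These are primary screening values without error estimates. The marker varies much from line to line, for technical or biological reasons.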 Only some of the drugs and lines screened are listed, without regard to their results.

Compounds and concentrations:
pioglitazone (10000 nM): CCc1ccc(CCOc2ccc(CC3SC(=O)NC3=O)cc2)nc1 (centres unmarked)
SNS-032 (50 nM): CC(C)(C)c1cnc(CSc2cnc(NC(=O)C3CCNCC3)s2)o1
enzastaurin (4000 nM): Cn1cc(C2=C(c3cn(C4CCN(Cc5ccccn5)CC4)c4ccccc34)C(=O)NC2=O)c2ccccc21
GW2580 (5000 nM): COc1ccc(COc2ccc(Cc3cnc(N)nc3N)cc2OC)cc1
MK-2206 (2000 nM): NC1(c2ccc(-c3nc4ccn5c(=O)[nH]nc5c4cc3-c3ccccc3)cc2)CCC1
Src-I1 (10000 nM): COc1cc2ncnc(Nc3ccc(Oc4ccccc4)cc3)c2cc1OC
vorinostat (400 nM): O=C(CCCCCCC(=O)Nc1ccccc1)NO
IMD-0354 (80 nM): O=C(Nc1cc(C(F)(F)F)cc(C(F)(F)F)c1)c1cc(Cl)ccc1O
nutlin-3 (500 nM): COc1ccc(C2=N[C@@H](c3ccc(Cl)cc3)[C@@H](c3ccc(Cl)cc3)N2C(=O)N2CCNC(=O)C2)c(OC(C)C)c1

| Combination | MEL-HO |
|---|---|
| Src-I1 + enzastaurin | 351 |
| SNS-032 + vorinostat | 76.2 |
| SNS-032 + pioglitazone | 46.5 |
| Src-I1 + MK-2206 | 273 |
| nutlin-3 + Src-I1 | 152 |
| SNS-032 + nutlin-3 | 80.8 |
| nutlin-3 + vorinostat | 74.3 |
| pioglitazone + IMD-0354 | 122 |
| Src-I1 + pioglitazone | 96.5 |
| Src-I1 + GW2580 | 110 |
| IMD-0354 + enzastaurin | 42.4 |
| MK-2206 + enzastaurin | 254 |
| nutlin-3 + GW2580 | 117 |
| SNS-032 + GW2580 | 83.3 |
| SNS-032 + MK-2206 | 84.7 |
| IMD-0354 + nutlin-3 | 45.8 |
| pioglitazone + nutlin-3 | 87.3 |
| IMD-0354 + SNS-032 | 71.8 |
| vorinostat + Src-I1 | 105 |
| pioglitazone + vorinostat | 100 |
| GW2580 + IMD-0354 | 88.6 |
| Src-I1 + IMD-0354 | 96.9 |
| pioglitazone + MK-2206 | 113 |
| enzastaurin + nutlin-3 | 62.5 |
| GW2580 + enzastaurin | 45.8 |
| GW2580 + vorinostat | 45.5 |
| pioglitazone + enzastaurin | 123 |
| IMD-0354 + vorinostat | 82.3 |
| SNS-032 + enzastaurin | 78.2 |
| vorinostat + MK-2206 | 213 |

Some entries from above, unchanged:

Combination,MEL-HO
GW2580 + enzastaurin,45.8
GW2580 + vorinostat,45.5
MK-2206 + enzastaurin,254